# Out of some 320,000 compounds screened, about 2,100 (0.66%) were called active. Inconclusive means that the source gave no clear call. Such entries were picked first, then a sample of the others. Calls follow the shape of the dose curve; as a rule, active = well fitted inhibition curve with a large enough effect in the signal ratio, with a control signal flat (not every such curve was filed as active); inconclusive = small, poorly fitted or top-dose-only effect, or effect the other way, or a change in a side signal; inactive = flat fitted curve, though single readings scatter; the % refers to the signal ratio. Potencies beside an inconclusive call are fits to weak or partial responses and may not hold up.
# Assay: qHTS Assay for Lipid Storage Modulators in Drosophila S3 Cells
# Conditions: BODIPY lipid droplet fluorescence, 18-24 h, cells fed with added oleic acid; lipid storage change, negative = inhibition: at 46.1 µM (top of the series) unless noted
# Outline: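 Laser-scanning cytometry quantifies lipid droplet accumulation (500–530 nm total intensity; droplet/cell object ratio) in oleic acid-fed (400 uM added) Drosophila S3 cells treated with a concentration series. 20 uM Triacsin C defined 100% inhibition.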
# % is scaled to controls: 0 for no effect and ±100 for the full control effect; potency is read from the fitted curve at half-maximal effect.
SMILES,"lipid storage change, negative = inhibition",Potency
COc1ccc(C)cc1S(=O)(=O)n1cnc2ccccc21,inconclusive: 30.8%,–
O=C(OC(C(=O)Nc1ccc(Cl)cc1C(F)(F)F)c1ccccc1)C1=COCCO1 (stereo unspecified),inactive: 6%,–
CN1C(=O)C(C)(C)c2cc(S(=O)(=O)N(C)Cc3ccccc3)ccc21,–,"inconclusive: 3.66 µM [falling, full curve, poor fit]"
CCOC(=O)Cn1c(=O)cc(C)c2ccccc21,inconclusive: 19.5%,–
CCCc1nnc(NC(=O)CCC(=O)N2CCN(C3c4ccccc4-c4ccccc43)CC2)s1,inconclusive: 17%,–
COc1cccc(C(=O)Oc2cc(N)n(S(=O)(=O)c3ccc(C)cc3)n2)c1OC,–,"inconclusive: 0.461 µM [falling, full curve, poor fit]"
Cc1nn(C)c(C(=O)Nc2cccc(Nc3ccccc3)c2)c1[N+](=O)[O-],inconclusive: 6.21%,–
CCCn1nnnc1NCc1ccc(OC)cc1OC,inconclusive: 0.845%,–
O=C(CNC(=O)C1CCCCC1)Nc1cc(Cl)cc(Cl)c1,inactive: -17%,–
Cc1nn(-c2ccccc2)c(Cl)c1/C=N\NC(=O)c1cnccn1,inconclusive: 13.8%,–
Cc1cc(C(=O)Nc2ccc(Cl)cc2)on1,inconclusive: 88.9%,–
CC1(C)Cc2c(c(N3CCOCC3)nc3sc(-c4ccc(C(=O)O)o4)c(N)c23)CO1,inconclusive: -9.26%,–
Cc1cnc(C(=O)Nc2ccc(C)c(S(=O)(=O)N3CCCCC3)c2)cn1,inconclusive: 9.23%,–
CCC1(c2ccccc2)NC(=O)N(CC(=O)NNC(=O)COc2ccc(Cl)cc2C)C1=O (stereo unspecified),inconclusive: 11.2%,–
CC(N1CCOC1=O)S(=O)(=O)c1ccccc1 (stereo unspecified),–,"inconclusive: 4.11 µM [falling, single point]"
Cc1onc(-c2c(Cl)cccc2Cl)c1C(=O)N1CCN(c2ccccc2F)CC1,inconclusive: 28%,–
COc1ccc(-c2nc3ccccc3nc2-c2ccccc2)cc1OC,–,"inconclusive: 5.8 µM [falling, full curve]"
O=C(Cc1ccccc1[N+](=O)[O-])NNC(=O)c1ccncc1,inconclusive: -7.79%,–
CC(C)Sc1nc2ccccc2[nH]1,inconclusive: 8.17%,–
CCC(=O)Nc1nnc(S(=O)(=O)N2c3ccccc3CC2C)s1 (stereo unspecified),–,"inconclusive: 29.1 µM [activator, single point]"
CCOC(=O)N1CCC(n2c(SCC(=O)Nc3ccccc3OC)nc3ccccc3c2=O)CC1,–,"inconclusive: 0.517 µM [activator, full curve, poor fit]"
COc1ccc(Cn2c(C3CC3)nc3ccc(NC(=O)c4cccnc4)cc3c2=O)cc1,inconclusive: -39.3%,–
FC(F)(F)c1cccc(NC(=S)NNC(=S)Nc2ccc(Cl)cc2)c1,–,"inconclusive: 29.1 µM [falling, single point]"
COc1ccc(NC(=S)N(CCN(C)C)C(C)c2ccncc2)cc1Cl (stereo unspecified),inconclusive: 14.4%,–
Cc1cc(C)cc(NC(=O)c2ccc(CNc3c(N4CCCC4)c(=O)c3=O)cc2)c1,–,"inconclusive: 3.26 µM [activator, single point]"
Cc1cc(C(=O)NNC(=O)Nc2ccc(Cl)cc2)no1,inconclusive: -10.9%,–

SMILES,"lipid storage change, negative = inhibition",Potency
CS(=O)(=O)c1ccc(C(=O)NCC2(N3CCCCC3)CCCCC2)cc1,inconclusive: 10.8%,–
N#Cc1cc([N+](=O)[O-])ccc1NCCCn1ccnc1,inconclusive: 93.8%,–
COc1cc(NC(=S)NCCCO)c(OC)cc1Cl,inconclusive: -42.1% [cytotoxic] [at 0.369 µM],–
CCc1c(C2(O)CCCCC2)[nH]c2c(C(=O)OC)cc(Cl)cc12,inconclusive: -19%,–
CCc1sc(C(=O)NC(C)C2CCCO2)cc1Br (stereo unspecified),inconclusive: 3.29%,–
COc1ccc(S(=O)(=O)Nc2ccc(Cc3ccncc3)cc2)cc1OC,–,"inconclusive: 29.1 µM [falling, single point]"
Cc1nnc2ccc(N3CCN(C(=O)c4ccccc4)CC3)nn12,inconclusive: 48.8% [activator],–
COCc1cc(C)nc(SCC(=O)Oc2ccccc2)c1C#N,inconclusive: -61.4%,–
CCOc1ccccc1NC(=O)CNC(=O)CNC(=O)Cc1ccccc1,–,"inconclusive: 3.66 µM [activator, full curve]"
O=C(c1nc2ncccn2n1)N1CCc2ccccc2C1,–,"inconclusive: 29.1 µM [activator, single point]"
CCOC(=O)c1cnc2ccc(OCC)cc2c1NCc1ccccc1,inconclusive: -32.8%,–
Cc1cccc(NC(=O)C2CCCN2S(=O)(=O)c2ccc3c(c2)n(C)c(=O)c(=O)n3C)c1 (stereo unspecified),inconclusive: -8.16%,–
Cn1nnnc1SCC(=O)NC(=O)Cc1ccccc1,inconclusive: -26.2%,–
CCOC(=O)Cn1c(=O)n(Cc2ccco2)c(=O)c2ccc(C(=O)NC3CCCC3)cc21,inconclusive: 33.1%,–
O=C(O)C1CCCCC1C(=O)NC1C2CC3CC(C2)CC1C3 (stereo unspecified),inconclusive: -73.2%,–
C(=N\Nc1nn[nH]n1)/c1ccccc1,inconclusive: 0.0582%,–
CCCOc1ccc(C(=O)CCC(=O)OCC(=O)N2CC(=O)Nc3ccccc32)cc1,inconclusive: -17.4%,–
CCN(CC(=O)Nc1ccccc1C(F)(F)F)C(=O)c1oc2ccc(OC)cc2c1C,inconclusive: 32.4%,–
Cc1cc(C)cc(N(CC(=O)NC(C)C)C(=O)CCC(=O)Nc2ccccn2)c1,inconclusive: 20.2%,–
C/C(=N/NC(=O)c1cccc(Br)c1)C1CC2CCC1C2 (stereo unspecified),inconclusive: 52.6%,–
Cc1cc(C)n(CC(O)COc2ccccc2C(=O)Nc2ccccc2)n1 (stereo unspecified),inconclusive: 23.3%,–
COc1cc(OC)c(NC(=O)c2cccc(F)c2)cc1Cl,–,"inconclusive: 0.259 µM [activator, partial curve, poor fit]"
Cc1c(C(=O)N(Cc2ccccc2)C2CCS(=O)(=O)C2)oc2ccccc12 (stereo unspecified),inactive: 23.8%,–
O=C(C1=C[C@H](c2ccccc2)C[C@H](OCCCCO)O1)N1CCN(Cc2ccccc2)CC1,inconclusive: -6.7%,–
Cc1c(/C=C(\C#N)C(=O)NCc2ccccc2)cc(C#N)n1C,–,"inconclusive: 0.731 µM [rising, single point]"

# 2 neighbouring compounds out of the list so far:
SMILES,"lipid storage change, negative = inhibition",Potency
Cc1cccc(NC(=O)C2CCCN2S(=O)(=O)c2ccc3c(c2)n(C)c(=O)c(=O)n3C)c1 (stereo unspecified),inconclusive: -8.16%,–
Cn1nnnc1SCC(=O)NC(=O)Cc1ccccc1,inconclusive: -26.2%,–
